From publication PMC11555713 come the findings set out here.

Chains of the proteins cited; added tags and fusions are not shown. Lines headed by an entry give the natural chain unless they say otherwise; changes in a name come on top.
UniProt Q9BXL6: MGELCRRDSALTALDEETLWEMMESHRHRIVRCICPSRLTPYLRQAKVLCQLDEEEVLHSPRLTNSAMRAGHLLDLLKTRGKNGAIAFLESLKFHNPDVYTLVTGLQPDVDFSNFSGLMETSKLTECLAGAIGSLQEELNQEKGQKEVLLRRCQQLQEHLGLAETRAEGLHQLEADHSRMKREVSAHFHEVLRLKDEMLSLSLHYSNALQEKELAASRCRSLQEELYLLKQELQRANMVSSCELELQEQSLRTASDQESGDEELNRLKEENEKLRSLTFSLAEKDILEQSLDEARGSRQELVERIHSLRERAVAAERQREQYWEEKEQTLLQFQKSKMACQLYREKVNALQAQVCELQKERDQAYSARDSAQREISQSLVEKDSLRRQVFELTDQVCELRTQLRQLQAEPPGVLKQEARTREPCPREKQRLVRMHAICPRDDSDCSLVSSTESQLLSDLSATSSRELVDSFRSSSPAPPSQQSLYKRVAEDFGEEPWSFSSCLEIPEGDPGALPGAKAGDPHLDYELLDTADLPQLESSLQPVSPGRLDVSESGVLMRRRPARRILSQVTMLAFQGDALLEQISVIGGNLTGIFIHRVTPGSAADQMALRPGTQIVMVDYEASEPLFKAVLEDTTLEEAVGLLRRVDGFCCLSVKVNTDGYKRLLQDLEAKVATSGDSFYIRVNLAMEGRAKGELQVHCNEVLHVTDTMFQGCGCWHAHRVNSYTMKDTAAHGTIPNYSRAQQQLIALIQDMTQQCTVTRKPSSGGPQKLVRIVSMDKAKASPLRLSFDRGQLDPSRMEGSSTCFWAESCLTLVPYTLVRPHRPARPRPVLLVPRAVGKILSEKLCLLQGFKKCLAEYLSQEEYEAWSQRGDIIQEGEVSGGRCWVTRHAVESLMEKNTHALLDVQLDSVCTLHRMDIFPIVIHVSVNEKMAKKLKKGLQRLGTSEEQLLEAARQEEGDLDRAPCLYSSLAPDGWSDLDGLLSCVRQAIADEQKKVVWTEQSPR
UniProt Q14677: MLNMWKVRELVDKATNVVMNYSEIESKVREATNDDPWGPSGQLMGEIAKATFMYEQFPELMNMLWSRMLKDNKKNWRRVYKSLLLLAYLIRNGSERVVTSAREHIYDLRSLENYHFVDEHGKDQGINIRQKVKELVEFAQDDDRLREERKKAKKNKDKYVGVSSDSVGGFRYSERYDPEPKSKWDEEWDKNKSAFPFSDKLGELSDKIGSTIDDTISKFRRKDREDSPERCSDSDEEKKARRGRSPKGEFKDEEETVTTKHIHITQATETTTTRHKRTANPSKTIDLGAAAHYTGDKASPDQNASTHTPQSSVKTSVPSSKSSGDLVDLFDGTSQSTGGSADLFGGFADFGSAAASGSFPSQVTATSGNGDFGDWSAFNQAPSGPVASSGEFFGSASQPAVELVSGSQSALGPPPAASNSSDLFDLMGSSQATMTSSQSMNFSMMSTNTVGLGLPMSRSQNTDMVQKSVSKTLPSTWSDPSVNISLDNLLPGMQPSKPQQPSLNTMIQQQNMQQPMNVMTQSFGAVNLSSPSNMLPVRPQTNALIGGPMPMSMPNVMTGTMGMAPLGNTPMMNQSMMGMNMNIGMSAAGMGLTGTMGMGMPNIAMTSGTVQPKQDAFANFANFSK
UniProt Q96EP0: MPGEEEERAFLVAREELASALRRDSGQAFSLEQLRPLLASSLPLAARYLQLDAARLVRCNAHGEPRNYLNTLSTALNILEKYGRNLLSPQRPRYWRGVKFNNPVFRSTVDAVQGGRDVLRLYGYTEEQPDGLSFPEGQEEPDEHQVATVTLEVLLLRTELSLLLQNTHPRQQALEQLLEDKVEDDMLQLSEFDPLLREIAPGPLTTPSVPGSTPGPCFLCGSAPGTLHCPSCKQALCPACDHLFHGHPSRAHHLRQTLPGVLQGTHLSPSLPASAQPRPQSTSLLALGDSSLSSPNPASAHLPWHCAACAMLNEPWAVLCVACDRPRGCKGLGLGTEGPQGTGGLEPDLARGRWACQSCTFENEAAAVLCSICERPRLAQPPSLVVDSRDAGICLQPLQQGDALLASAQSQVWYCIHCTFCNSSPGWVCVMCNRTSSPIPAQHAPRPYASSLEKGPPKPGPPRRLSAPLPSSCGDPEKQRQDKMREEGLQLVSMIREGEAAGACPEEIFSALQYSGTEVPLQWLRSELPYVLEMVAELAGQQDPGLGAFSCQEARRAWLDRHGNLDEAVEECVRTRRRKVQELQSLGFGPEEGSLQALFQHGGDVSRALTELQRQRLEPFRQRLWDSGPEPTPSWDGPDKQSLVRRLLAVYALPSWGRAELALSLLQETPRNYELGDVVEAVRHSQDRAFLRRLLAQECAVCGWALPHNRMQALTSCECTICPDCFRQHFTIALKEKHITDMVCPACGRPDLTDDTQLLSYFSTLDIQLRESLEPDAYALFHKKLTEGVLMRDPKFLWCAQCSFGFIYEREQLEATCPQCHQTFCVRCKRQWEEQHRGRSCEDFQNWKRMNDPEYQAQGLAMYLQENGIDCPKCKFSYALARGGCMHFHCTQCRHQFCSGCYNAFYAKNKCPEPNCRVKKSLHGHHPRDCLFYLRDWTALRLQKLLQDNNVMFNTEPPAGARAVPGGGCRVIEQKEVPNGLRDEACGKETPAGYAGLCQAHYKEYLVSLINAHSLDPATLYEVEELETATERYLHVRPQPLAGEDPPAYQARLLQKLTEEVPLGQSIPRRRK
UniProt Q9UDY8: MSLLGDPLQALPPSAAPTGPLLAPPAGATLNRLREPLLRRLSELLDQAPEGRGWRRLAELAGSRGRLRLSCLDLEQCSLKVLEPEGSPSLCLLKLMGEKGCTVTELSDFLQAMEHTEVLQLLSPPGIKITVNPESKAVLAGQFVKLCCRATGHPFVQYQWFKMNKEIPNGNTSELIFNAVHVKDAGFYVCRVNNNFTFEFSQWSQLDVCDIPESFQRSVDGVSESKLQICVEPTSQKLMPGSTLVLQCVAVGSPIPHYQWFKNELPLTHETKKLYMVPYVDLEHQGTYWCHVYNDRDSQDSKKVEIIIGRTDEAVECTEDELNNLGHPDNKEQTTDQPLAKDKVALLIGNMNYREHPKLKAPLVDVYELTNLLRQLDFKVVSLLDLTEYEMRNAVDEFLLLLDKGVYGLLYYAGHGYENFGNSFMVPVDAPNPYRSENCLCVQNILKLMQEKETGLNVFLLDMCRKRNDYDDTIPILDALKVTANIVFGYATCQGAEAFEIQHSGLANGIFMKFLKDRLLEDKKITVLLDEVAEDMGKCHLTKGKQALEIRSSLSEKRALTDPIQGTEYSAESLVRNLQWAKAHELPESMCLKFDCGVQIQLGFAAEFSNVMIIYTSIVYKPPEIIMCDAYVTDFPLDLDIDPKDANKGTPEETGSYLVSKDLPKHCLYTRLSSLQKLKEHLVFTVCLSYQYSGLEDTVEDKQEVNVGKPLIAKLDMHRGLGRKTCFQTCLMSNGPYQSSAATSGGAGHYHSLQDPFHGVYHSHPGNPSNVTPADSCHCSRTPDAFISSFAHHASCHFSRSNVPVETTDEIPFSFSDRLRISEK
UniProt Q9Y4K3: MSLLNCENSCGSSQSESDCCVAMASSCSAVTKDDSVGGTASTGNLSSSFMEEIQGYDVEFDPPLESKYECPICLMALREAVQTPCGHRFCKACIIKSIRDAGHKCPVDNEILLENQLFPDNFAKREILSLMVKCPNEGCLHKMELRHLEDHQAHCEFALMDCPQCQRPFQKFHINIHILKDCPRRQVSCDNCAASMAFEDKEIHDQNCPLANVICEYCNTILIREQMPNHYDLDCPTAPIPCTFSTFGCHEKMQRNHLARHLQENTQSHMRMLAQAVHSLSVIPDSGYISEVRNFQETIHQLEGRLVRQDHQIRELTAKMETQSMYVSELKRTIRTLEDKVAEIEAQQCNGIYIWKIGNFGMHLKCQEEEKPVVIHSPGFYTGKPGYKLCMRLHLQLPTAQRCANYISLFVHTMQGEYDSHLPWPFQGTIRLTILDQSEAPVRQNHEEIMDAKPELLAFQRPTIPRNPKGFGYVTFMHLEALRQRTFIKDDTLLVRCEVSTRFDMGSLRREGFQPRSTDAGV
UniProt Q13489: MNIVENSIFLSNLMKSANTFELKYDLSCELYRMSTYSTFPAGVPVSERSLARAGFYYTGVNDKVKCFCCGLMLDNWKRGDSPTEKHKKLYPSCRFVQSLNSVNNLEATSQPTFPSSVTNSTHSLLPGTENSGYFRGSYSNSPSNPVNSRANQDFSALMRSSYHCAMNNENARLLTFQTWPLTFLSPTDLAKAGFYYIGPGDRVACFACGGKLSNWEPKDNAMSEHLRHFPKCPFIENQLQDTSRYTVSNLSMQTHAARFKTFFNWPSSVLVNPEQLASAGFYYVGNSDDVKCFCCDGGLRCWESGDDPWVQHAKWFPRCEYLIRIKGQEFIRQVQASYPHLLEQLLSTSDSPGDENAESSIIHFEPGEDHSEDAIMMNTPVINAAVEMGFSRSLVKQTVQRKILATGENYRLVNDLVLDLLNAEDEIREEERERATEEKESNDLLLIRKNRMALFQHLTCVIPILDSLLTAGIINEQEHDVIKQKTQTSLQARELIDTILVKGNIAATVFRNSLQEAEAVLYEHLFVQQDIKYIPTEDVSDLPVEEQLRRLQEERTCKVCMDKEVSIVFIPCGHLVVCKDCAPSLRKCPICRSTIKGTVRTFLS

These are yes or no findings as the source states them, for the method shown. Binding seen in cells or lysates may run through a third protein. Here binding means that the protein was enriched with, or labelled near, the bait; the list need not be complete.

First the molecules themselves.
B1: BCL10 (B cell lymphoma protein 10) (protein, UniProt O95999 1-233)
chain: MEPTAPSLTEEDLTEVKKDALENLRVYLCEKIIAERHFDHLRAKKILSREDTEEISCRTSSRKRAGKLLDYLQENPKGLDTLVESIRREKTQNFLIQKITDEVLKLRNIKLEHLKGLKCSSCEPFPDGATNNLSRSNSDESNFSEKLRASTVMYHPEGESSTTPFFSTNSSLNLPVLEVGRTENTIFSSTTLPRPGDPGAPPLPPDLQLEEEGTCANSSEMFLPLRSRTVSRQ

The target of the first assay is CARD14^E138A-3xFLAG (human) (UniProt Q9BXL6). The experiment in a line: affinity purification with mass spectrometry; anti-FLAG immunoprecipitates from SILAC-labelled CARD14^E138A-3xFLAG HaCaT-TR cells (3 h tetracycline) against parental HaCaT-TR control cells, forward and reverse labelling.
On to B1, for which the binding entry is listed as “binds”.

The target is the same in the next assay. The assay is described as above. This is another data set of the same source.
Turning to “EpsinR (CLINT1) (from UniProt Q14677 1-625)”, the binding result was “binds”. Still for that read-out and setting: as for “HOIP (RNF31) (from UniProt Q96EP0 1-1072)”, the entry is “binds”; as for “MALT1 (Mucosa-associated lymphoid tissue lymphoma translocation protein 1) (from UniProt Q9UDY8 1-824)”, “binds”; as for TRAF6 (from UniProt Q9Y4K3 1-522), “binds”. As for “cIAP2 (BIRC3) (from UniProt Q13489 1-604)”, the binding entry is on record as “binds”.
